The test addresses T1, CD73 ECD protein (Homo sapiens (Human)) (UniProt P21589).
T1 sequence: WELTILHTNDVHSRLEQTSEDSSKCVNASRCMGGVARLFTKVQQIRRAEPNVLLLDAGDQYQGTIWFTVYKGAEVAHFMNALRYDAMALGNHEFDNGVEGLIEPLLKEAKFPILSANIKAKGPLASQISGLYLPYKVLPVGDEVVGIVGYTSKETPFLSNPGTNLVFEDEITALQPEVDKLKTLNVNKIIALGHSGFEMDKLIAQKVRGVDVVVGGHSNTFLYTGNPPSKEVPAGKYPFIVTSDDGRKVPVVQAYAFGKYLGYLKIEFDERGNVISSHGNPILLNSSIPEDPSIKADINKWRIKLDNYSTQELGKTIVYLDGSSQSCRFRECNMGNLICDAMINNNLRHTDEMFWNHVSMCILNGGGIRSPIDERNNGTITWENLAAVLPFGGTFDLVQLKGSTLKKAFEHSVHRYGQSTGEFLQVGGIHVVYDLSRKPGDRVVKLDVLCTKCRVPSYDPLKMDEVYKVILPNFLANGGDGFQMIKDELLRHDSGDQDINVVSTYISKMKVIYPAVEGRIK
The test can be described thus: competition ELISA, CD73 ECD pre-incubated with Hu101-28; competitor biotinylated MEDI-9447. In general terms: ELISA stands for enzyme-linked immunosorbent assay.

These are yes or no findings as the source states them, for the method shown. Some binding calls cover weakened binding; strength is not graded here.

This note sets out measurements from patent publication US20200332005A1.

B1: Hu101-28 (antibody, V domains shown)
VH: EVQLQESGPGLVKPSETLSLTCAVSGYSITSGYYWNWIRQPPGKKLEWMGYINYGGSNGYNPSLKSRITISRDTSKNQFSLKLSSVTAADTAVYYCARDYDAYYEALDDWGQGTTVTVSS
VL: EIVLSQSPATLSLSPGERATLSCRASSRVNYMHWYQQKPGQSPRPWISATSNLASGVPARFSGSGSGTSYTLTISSLEPEDFAVYYCQQWSSNPPTFGGGTKVEIK
As for B1, the binding entry was “binds”.
